{
  "sequences": {"note": "The chains behind the UniProt entries cited, without tags or fusion partners. Where a name states a change or a piece, a line headed by the entry shows the natural chain unless it says otherwise. A line that says so, or that is headed by a name, gives the form on record, which may keep a tag or linker.", "UniProt P26368": "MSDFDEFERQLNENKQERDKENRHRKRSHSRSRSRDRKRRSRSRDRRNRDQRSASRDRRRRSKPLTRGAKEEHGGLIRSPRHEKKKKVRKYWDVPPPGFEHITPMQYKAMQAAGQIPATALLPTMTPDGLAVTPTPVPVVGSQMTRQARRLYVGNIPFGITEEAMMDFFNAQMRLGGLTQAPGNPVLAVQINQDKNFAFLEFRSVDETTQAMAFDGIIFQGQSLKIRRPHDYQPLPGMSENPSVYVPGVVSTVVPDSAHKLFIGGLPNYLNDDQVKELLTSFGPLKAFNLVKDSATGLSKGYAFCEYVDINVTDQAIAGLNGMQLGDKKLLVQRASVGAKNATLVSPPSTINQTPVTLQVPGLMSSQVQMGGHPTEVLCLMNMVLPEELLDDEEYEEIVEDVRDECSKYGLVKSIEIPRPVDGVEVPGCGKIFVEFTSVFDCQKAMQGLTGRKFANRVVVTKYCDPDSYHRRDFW", "EGFP-tagged U2AF2Δ27-62 (P26368, form named)": "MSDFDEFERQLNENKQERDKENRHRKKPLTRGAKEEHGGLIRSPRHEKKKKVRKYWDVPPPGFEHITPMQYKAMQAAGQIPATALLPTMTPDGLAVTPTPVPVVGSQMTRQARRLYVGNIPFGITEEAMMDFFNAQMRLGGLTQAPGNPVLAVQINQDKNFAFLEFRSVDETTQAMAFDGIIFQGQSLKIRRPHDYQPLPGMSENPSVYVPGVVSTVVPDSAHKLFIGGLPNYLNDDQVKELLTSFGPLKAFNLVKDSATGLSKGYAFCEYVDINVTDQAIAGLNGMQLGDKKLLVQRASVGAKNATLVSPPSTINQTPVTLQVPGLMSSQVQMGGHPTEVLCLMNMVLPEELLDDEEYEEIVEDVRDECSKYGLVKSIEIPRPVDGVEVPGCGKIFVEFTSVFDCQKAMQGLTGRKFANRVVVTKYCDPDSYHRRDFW", "UniProt P26369": "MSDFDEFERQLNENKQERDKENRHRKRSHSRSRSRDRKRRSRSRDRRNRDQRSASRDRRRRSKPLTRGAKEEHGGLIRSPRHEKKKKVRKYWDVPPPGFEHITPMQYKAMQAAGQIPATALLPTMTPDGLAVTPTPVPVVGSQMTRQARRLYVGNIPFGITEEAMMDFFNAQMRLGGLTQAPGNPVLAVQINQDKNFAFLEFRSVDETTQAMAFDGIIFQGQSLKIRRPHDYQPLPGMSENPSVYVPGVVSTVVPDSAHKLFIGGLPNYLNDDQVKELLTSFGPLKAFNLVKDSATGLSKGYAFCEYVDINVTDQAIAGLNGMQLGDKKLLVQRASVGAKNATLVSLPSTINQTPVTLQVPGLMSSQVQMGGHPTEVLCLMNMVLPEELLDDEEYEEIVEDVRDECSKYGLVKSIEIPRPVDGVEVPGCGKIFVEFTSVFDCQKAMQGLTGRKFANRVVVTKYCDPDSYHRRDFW"},
  "source": "paper PMC6008332",
  "binders": {"B1": {"name": "U2AF1, endogenous, 293T-derived cells, Q01081 1-240 (protein)", "chain": "MAEYLASIFGTEKDKVNCSFYFKIGACRHGDRCSRLHNKPTFSQTIALLNIYRNPQNSSQSADGLRCAVSDVEMQEHYDEFFEEVFTEMEEKYGEVEEMNVCDNLGDHLVGNVYVKFRREEDAEKAVIDLNNRWFNGQPIHAELSPVTDFREACCRQYEMGECTRGGFCNFMHLKPISRELRRELYGRRRKKHRSRSRSRERRSRSRDRGRGGGGGGGGGGGGRERDRRRSRDRERSGRF"}, "B2": {"name": "U2AF1, endogenous, 293T-derived cells (protein, UniProt Q01081 1-240)", "chain": "B1 chain"}, "B3": {"name": "U2AF1, endogenous, MEF cells (protein, UniProt Q9D883 1-239)", "chain": "MAEYLASIFGTEKDKVNCSFYFKIGACRHGDRCSRLHNKPTFSQTIALLNIYRNPQNSSQSADGLRCAVSDVEMQEHYDEFFEEVFTEMEEKYGEVEEMNVCDNLGDHLVGNVYVKFRREEDAEKAVIDLNNRWFNGQPIHAELSPVTDFREACCRQYEMGECTRGGFCNFMHLKPISRELRRELYGRRRKKHRSRSRSRERRSRSRDRGRGGGGGGGGGGGRERDRRRSRDRERSGRF"}},
  "key": {"[1]": {"biological_target": "EGFP-tagged U2AF2 full length, P26368", "experiment": "co-IP; EGFP, EGFP-tagged U2AF2-FL or U2AF2Δ27-62 transfected into 293T-PTENΔ cells (legend; text: 293T cells); GFP-Trap; immunoblot for endogenous proteins", "details": "remark: other sources report otherwise"}, "[2]": {"biological_target": "EGFP-tagged U2AF2Δ27-62 (UniProt P26368)", "experiment": "co-IP; EGFP, EGFP-tagged U2AF2-FL or U2AF2Δ27-62 transfected into 293T-PTENΔ cells (legend; text: 293T cells); GFP-Trap; immunoblot for endogenous proteins"}, "[3]": {"biological_target": "U2AF2, endogenous, MEF cells (mouse (endogenous in MEF)) (UniProt P26369)", "experiment": "co-IP; anti-U2AF2 antibody or control IgG in PTEN+/+ and PTEN−/− MEF cells; immunoblot"}},
  "note": "No constants are given. Whether binding was seen depends on the method and setting. Binding seen in cells or lysates may run through a third protein. Some binding calls cover weakened binding; strength is not graded here.",
  "data": [
    {"binder": "B1", "values": [
      {"measurement": "binding", "setting": "[1]", "value": "binds"}
    ]},
    {"binder": "B2", "values": [
      {"measurement": "binding", "setting": "[2]", "value": "binds"}
    ]},
    {"binder": "B3", "values": [
      {"measurement": "binding", "setting": "[3]", "value": "binds"}
    ]}
  ]
}
